Test results: paper PMC10647066

Protein sequences, listed by entry. Tags and fused reporters are not part of them.
UniProt Q56NI9: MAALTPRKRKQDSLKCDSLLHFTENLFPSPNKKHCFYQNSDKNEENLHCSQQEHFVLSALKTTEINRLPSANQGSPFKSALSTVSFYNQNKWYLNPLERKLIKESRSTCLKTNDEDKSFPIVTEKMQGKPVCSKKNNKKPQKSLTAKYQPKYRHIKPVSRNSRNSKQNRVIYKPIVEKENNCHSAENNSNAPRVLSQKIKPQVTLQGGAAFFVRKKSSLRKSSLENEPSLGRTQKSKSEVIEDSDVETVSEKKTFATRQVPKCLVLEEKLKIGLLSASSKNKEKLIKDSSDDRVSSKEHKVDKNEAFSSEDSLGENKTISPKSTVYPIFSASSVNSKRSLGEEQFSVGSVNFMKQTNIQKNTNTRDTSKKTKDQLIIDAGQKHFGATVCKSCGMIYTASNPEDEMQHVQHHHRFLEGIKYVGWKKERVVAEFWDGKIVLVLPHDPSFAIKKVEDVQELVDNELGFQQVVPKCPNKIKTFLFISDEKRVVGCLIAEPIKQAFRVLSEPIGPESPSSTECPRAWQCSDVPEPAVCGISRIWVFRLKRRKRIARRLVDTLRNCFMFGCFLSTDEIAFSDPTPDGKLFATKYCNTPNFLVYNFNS
UniProt P42224: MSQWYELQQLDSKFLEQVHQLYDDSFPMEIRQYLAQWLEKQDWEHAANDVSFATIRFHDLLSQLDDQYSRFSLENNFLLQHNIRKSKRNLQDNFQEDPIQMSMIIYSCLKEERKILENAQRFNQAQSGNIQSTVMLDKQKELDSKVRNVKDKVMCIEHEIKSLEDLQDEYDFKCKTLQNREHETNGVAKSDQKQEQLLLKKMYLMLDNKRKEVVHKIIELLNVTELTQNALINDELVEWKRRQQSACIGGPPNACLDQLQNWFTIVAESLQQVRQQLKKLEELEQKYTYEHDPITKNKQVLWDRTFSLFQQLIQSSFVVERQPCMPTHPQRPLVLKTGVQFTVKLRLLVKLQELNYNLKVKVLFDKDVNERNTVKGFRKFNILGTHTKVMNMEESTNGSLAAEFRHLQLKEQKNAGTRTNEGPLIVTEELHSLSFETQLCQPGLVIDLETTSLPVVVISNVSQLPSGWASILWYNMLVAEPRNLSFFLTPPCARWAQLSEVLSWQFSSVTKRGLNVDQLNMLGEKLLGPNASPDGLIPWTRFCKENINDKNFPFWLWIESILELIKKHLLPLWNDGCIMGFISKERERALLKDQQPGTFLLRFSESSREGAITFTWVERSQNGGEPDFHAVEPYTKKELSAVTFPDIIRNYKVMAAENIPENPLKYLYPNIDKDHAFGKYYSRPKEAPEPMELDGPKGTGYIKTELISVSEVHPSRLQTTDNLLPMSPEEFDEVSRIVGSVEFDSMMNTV

Molecular target: 3-Flag-tagged ESCO2 (establishment of sister chromatid cohesion N-acetyltransferase 2) (UniProt Q56NI9)
Assay: affinity purification with mass spectrometry; FaDu cells stably expressing 3-Flag-tagged ESCO2 or vehicle vector; IP lysis buffer; anti-Flag antibody on protein A beads, 4 °C overnight; eluted with 3-Flag peptide; Coomassie-stained gel, shotgun LC-MS/MS

- binding: binds
Substance: signal transducer and activator of transcription 1 (STAT1) (from UniProt P42224 1-750)

These are yes or no findings as the source states them, for the method shown. Binding seen in cells or lysates may run through a third protein. These calls come from enrichment with a bait or labelling near it, and not all partners need be listed.
